Laboratory results taken from PubChem BioAssay AID2517 (National Center for Advancing Translational Sciences (NCATS), 2010).
“And” between values parts separate entries of the source, which are not always exact repeats. Identical values can stand only once. The whole screen tested about 350,000 compounds, of which about 1,200 (0.34%) were called active. Inconclusive means that the source gave no clear call. Such entries were picked first, then a sample of the others. Calls come from the whole dose curve; as a rule, active = well fitted inhibition curve with a large enough effect; inconclusive = small, poorly fitted or top-dose-only effect; inactive = no such curve, though single readings can be large or run the other way. Potencies beside an inconclusive call are fits to weak or partial responses and may not hold up.

Chains of the proteins cited; added tags and fusions are not shown.
UniProt P27695, whole entry, looked up: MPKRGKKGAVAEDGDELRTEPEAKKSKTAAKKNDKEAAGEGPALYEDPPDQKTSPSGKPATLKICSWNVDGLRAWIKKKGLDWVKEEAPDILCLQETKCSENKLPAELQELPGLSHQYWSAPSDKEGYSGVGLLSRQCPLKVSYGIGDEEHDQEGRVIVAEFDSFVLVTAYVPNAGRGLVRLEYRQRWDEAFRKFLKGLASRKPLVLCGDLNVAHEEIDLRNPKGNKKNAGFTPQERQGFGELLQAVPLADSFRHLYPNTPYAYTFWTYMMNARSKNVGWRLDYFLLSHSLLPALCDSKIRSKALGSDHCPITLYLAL

Target: DNA repair nuclease/redox regulator APEX1 (Homo sapiens) (UniProt P27695)
Experiment: qHTS Assay for Inhibitors of the Human Apurinic/apyrimidinic Endonuclease 1 (APE1); note: nearly all actives have a fitted effect of over 55% in size;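 for activity change, negative = inhibition: plate controls were vehicle for no effect and reference inhibitor for full effect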
Details: recombinant APE1, TAMRA/BHQ-2 abasic DNA cleavage fluorescence; activity change, negative = inhibition: at 65.8 µM (top of the series)
Summary of the method: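 Compound pre-exposure to 0.75 nM APE1, 15 min at ambient temperature. Reaction initiated with 50 nM TAMRA/BHQ-2 THF substrate, read immediately in kinetic mode, 525 nm excitation, 598 nm emission.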
Potency is the fitted concentration of half-maximal effect.

Structure (SMILES)	activity change, negative = inhibition	Potency
CCCCc1nc2c(c3c1C[C@H](C)OC3)CN(S(=O)(=O)c1c(C)noc1C)CC2	inactive: -8.16% [at 12.4 µM]	
Cc1cc(O)ccc1N=Cc1c(C(F)(F)F)[nH][nH]c1=O	inactive: 16.9%	
COc1ccc(Cc2nc(C(=O)Nc3ccc(Cl)cc3)cs2)cc1	inactive: -2.29%	
CN(Cc1ccco1)c1nc(-c2cccnc2)nc2ccccc12		inconclusive: 39.8 µM [inhibitor, single point]
COc1cc2cc(Oc3ccc4ccc(=O)oc4c3)c(=O)oc2cc1OC(=O)C=C(C)C		inconclusive: 44.7 µM [inhibitor, single point]
Cc1cc(N2C(=O)C3C4C=CC(C4)C3C2=O)ccc1NC(=O)c1cccs1 (stereo not drawn)		inconclusive: 14.1 µM [inhibitor, partial curve]
CC(C)Oc1ccc(CC(=O)NNC(=S)Nc2ccc(Br)cc2)cc1		inconclusive: 44.7 µM [inhibitor, single point]
O=c1c2ccccc2[nH]c2ccc(O)cc12		inconclusive: 21.2 µM [inhibitor, single point]
CN(C(=O)/C=C/c1ccco1)c1ccccc1C(=O)O		inconclusive: 14.1 µM [inhibitor, partial curve]
Nc1nc(-c2ccc3c(c2)CCC(=O)N3)cs1		inconclusive: 3.16 µM [inhibitor, full curve, poor fit]
O=C(Nc1ccccc1)Nc1ncc([N+](=O)[O-])s1	inactive: -5.56%	
Cc1ccc(S(=O)(=O)N[C@H]2COC(=O)C/C=C\[C@@H](C)[C@H](NS(=O)(=O)c3ccc(C)cc3)COC(=O)C/C=C\[C@H]2C)cc1		inconclusive: 7.08 µM [inhibitor, single point]
O=C(CN1CCCC1)Nc1ccc(Br)cc1[N+](=O)[O-]	inactive: -1.42%	
O=C(Nc1cc(S(=O)(=O)N2CCOCC2)ccc1Cl)c1cc(=O)c2ccccc2o1		inconclusive: 7.94 µM [inhibitor, single point]
Cc1ccc(S(=O)(=O)N2CCC(=O)N(C(COCc3ccccc3)C(C)C)CC2)cc1 (stereo not drawn)		inconclusive: 39.8 µM [inhibitor, single point]
COc1ccc2nc(Cl)c(C3CC(c4ccco4)=NN3C(=O)CCC(=O)O)cc2c1 (stereo not drawn)		inconclusive: 0.02 µM [inhibitor, full curve, poor fit]
CCN1C(=O)CSc2ccc(C(=O)OC)cc21		inconclusive: 3.16 µM [inhibitor, single point]
CC(C)S(=O)(=O)C1=NSC2=NC(=O)/C(=C\c3ccc(-c4cccc(C(=O)O)c4)o3)C(=N)N21	inactive: -4.16%	
COc1ccc(/C=C/NC(=O)Cc2ccc(OC)c(OC)c2)cc1		inconclusive: 3.55 µM [inhibitor, single point]
Cc1ccc(CN=C(N)Nc2nc(C)cc(C)n2)cc1	inactive: 18.6%	
CCOC(=O)CNc1c(-c2ccc(O)cc2)nc2ccc(Cl)cn12		inconclusive: 0.126 µM [inhibitor, partial curve, poor fit]
Nc1nnc(SCC(=O)Nc2ccc3c(c2)OCCO3)s1	inactive: 3.7%	
O=C(Cn1nnc(-c2ccc(CN3CCOCC3)cc2)n1)N(c1ccccc1)c1ccccc1		inconclusive: 44.7 µM [inhibitor, single point]

Structure (SMILES)	activity change, negative = inhibition	Potency
CC(C)=CCC[C@@](C)(O)[C@H]1CC=C(C)CC1	inactive: -6.78%	
COc1cc(CNc2ccc(N3CCN(C(C)=O)CC3)cc2)ccc1OCc1ccccc1	inactive: -6.03%	
O=C(Nc1ccc(O)c2c(=O)cc(-c3cccc(Cl)c3)oc12)c1ccc(F)cc1	inactive: -1.25%	
CC1=NN(c2ccc(C(=O)O)cc2)C(=O)/C1=C\c1ccc(OC(=O)c2cccs2)cc1		inconclusive: 44.7 µM [inhibitor, single point]
COc1ccc2cc(/C(C)=N/NC(=S)Nc3cc(S(=O)(=O)N4CCOCC4)ccc3N3CCOCC3)ccc2c1		inconclusive: 7.94 µM [inhibitor, partial curve]
CCOC(=O)c1[nH]c2c(c1-c1ccccc1)C(=O)CC(c1ccc(OCC)cc1)C2 (stereo not drawn)		inconclusive: 4.47 µM [inhibitor, partial curve, poor fit]
O=C(/C=C/c1ccc(Br)cc1)N1CCN(c2cccc(C(F)(F)F)c2)CC1		inconclusive: 10 µM [inhibitor, full curve]
CC(=O)[C@@H]1[C@@H]2C(=O)N(c3ccc(F)c(Cl)c3)C(=O)[C@@H]2C2c3ccccc3C=CN21 (stereo partly drawn)		inconclusive: 44.7 µM [inhibitor, single point]
O=C(Nc1cccc(-c2cnc3ccccc3n2)c1)c1ccccc1	inactive: 1.08%	
COc1ccc(S(=O)(=O)N2CCN(C(=O)c3ccc([N+](=O)[O-])o3)CC2)cc1	inactive: -3.99% [at 12.4 µM]	
Cc1ccc(C)c(NC(=O)CCN2CCc3ccccc3C2)c1		inconclusive: 8.91 µM [inhibitor, single point]
CC(C)CC1NC(=O)N(CC(=O)N2CCN(S(=O)(=O)c3ccccc3)CC2)C1=O (stereo not drawn)		inconclusive: 39.8 µM [inhibitor, single point]
Cc1ccc(Nc2nc(N)nc(CSc3nncn3C)n2)cc1	inactive: 7.49%	
CC(=O)NC1C(=O)N(CCN2CCOCC2)c2ccc(C)cc21 (stereo not drawn)		inconclusive: 37.7 µM [inhibitor, single point]
COc1cc(C(CC(=O)N2CCCC2)c2c(OC)cc(OC)c3c(-c4ccccc4)cc(=O)oc23)cc(OC)c1OC (stereo not drawn)		inconclusive: 28.2 µM [inhibitor, partial curve] and inconclusive: 31.6 µM [inhibitor, single point]
CCCCn1c(SCc2nc(N)nc(Nc3ccccc3C)n2)nc2ccccc2c1=O		inconclusive: 31.6 µM [inhibitor, partial curve]
c1ccc(-c2ccccc2OCCCN2CCCC2)cc1		inconclusive: 0.178 µM [inhibitor, full curve, poor fit]
Cc1sc2nc(CN3CCCCC3)nc(Nc3ccc4c(c3)OCCO4)c2c1C	inactive: -11.2%	
CN1CCCC(OC(=O)COc2ccc(Br)cc2)C1 (stereo not drawn)		inconclusive: 25.1 µM [inhibitor, single point]
COc1ccc(NC(=O)c2c3c(nc4ccccc24)CCC3)cc1S(=O)(=O)N1CCOCC1		inconclusive: 15.8 µM [inhibitor, partial curve]
COc1ccc(OC)c(-c2nnc3n2N=C(c2ccc(OC)c(O[C@H]4CCOC4)c2)CS3)c1	inactive: -4.56%	
COc1cccc(CN(C)CC(=O)NC(=O)NCc2ccco2)c1		inconclusive: 35.5 µM [inhibitor, single point]
CCCc1cc(Nc2cccc(OC)c2)n2ncnc2n1		inconclusive: 12.6 µM [inhibitor, partial curve, poor fit]

Structure (SMILES)	activity change, negative = inhibition	Potency
CC(CC(C)(C)C)CP(=O)(O)CC(C)CC(C)(C)C (stereo not drawn)		inconclusive: 5.62 µM [inhibitor, full curve]
Cn1cc(C(c2ccccc2OCC(=O)O)c2cn(C)c3ccccc23)c2ccccc21	inactive: 34.3%	
O=C(O)c1ccc2c(c1)C(=O)N([C@H](Cc1c[nH]c3ccccc13)C(=O)O)C2=O		inconclusive: 10 µM [inhibitor, partial curve]
CCOc1ccc(N2C(=O)CC(NNc3nc4ccccc4s3)C2=O)cc1 (stereo not drawn)		inconclusive: 7.94 µM [inhibitor, partial curve]
Cn1c(NCCc2ccccc2)cc(=O)n(C)c1=O	inactive: 14.8%	
COc1ccc(/C=N/NC(=O)CCn2cnc(-c3ccccc3)c2-c2ccccc2)cc1		inconclusive: 39.8 µM [inhibitor, single point]
COC(=O)/C=C/C(=O)Nc1ccc(O)c(Cl)c1	inactive: 4.45%	
O=C(/C=C/c1ccccc1)NC(=S)NNC(=O)c1cnccn1	inactive: -1.93%	
COc1cccc(/C=N/n2c(-c3n[nH]c4c3CCC4)n[nH]c2=S)c1O	inactive: -2.38%	
CCc1ccc(N=c2c([N+](=O)[O-])nn(-c3ccc4c(c3)OCCO4)n2O)cc1		inconclusive: 20 µM [inhibitor, partial curve, poor fit]
COC(=O)N/N=C/c1cc(N=Nc2ccccc2)ccc1O	inactive: -1.5%	
Cc1cc(/C=C2/C(=N)N3C(=NC2=O)SN=C3S(C)(=O)=O)c(C)n1-c1ccc(F)cc1	inactive: -7.13%	
C=CCn1c(=S)[nH]c2scc(-c3ccco3)c2c1=O		inconclusive: 28.2 µM [inhibitor, partial curve]
CCc1nc2sc3ccccc3c(=O)c2c(=O)n1Cc1ccco1		inconclusive: 31.6 µM [inhibitor, single point]
O=C(N/N=C/c1sc(N2CCOCC2)nc1-c1ccccc1)c1cccc(S(=O)(=O)N2CCOCC2)c1		inconclusive: 0.0112 µM [inhibitor, full curve, poor fit]
O=C(O)CCN1C(=O)C2CCCCC2C1=O (stereo not drawn)	inactive: -1%	
COc1ccccc1C(=O)NCCCNc1ccc([N+](=O)[O-])cc1		inconclusive: 6.31 µM [inhibitor, partial curve]
Cc1csc(NC(=O)CSc2nnc(-c3ccc(S(=O)(=O)N4CCCC4)cc3)o2)n1	inactive: 0.267%	
C[C@@H]1Cc2c(O)c(O)cc(O)c2C(=O)O1		inconclusive: 1.78 µM [inhibitor, full curve]
NC(=O)COC(=O)c1ccc(Cl)c(S(=O)(=O)N(Cc2ccccc2)c2ccc(Cl)cc2)c1		inconclusive: 2.82 µM [inhibitor, full curve, poor fit]
CC1(c2ccc3noc(-c4cccc(F)c4)c3c2)OCCO1		inconclusive: 8.91 µM [inhibitor, single point]
O=c1nc(Nc2ccccc2)oc2ccccc12	inactive: -0.168%	
